Experimental data: PubChem BioAssay AID504804 (Drosophila RNAi Screening Center, 2011)

Aim: 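Knock-downs shielding fly cells from apoptosis caused by DNA damage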 (primary screen)
Cells: Drosophila Kc cells
Reagents: long dsRNA against Drosophila genes, 0.5 µg dsRNA per well
Time to read-out: 96 h (48 h knock-down, then 48 h drug)
Conditions: doxorubicin 5 µg/ml for 48 h, added 48 h after dsRNA
Measurement: 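Luminescent ATP counts per replicate, not normalised, reflecting viable cells after 48 h dsRNA knock-down followed by 48 h of 5 µg/ml doxorubicin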
Scale: raw ATP luminescence: higher = more viable cells, protection from doxorubicin
Rule for the call: 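Active when both duplicate wells lie at least 2 SD above the plate mean and protection is confirmed by rescreening and independent dsRNAs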
The deposit covers about 19,000 reagents; below is an unselected part of those with a known target gene and a result. Over the whole deposit, 47 (0.25%) got an active call. 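Signals are raw, not normalised; exact z-scores behind calls not deposited; actives needed confirmation, so some wells reaching 2 SD are inactive.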 The numbers tell different reagents against one gene apart. Reagent sequences are not shown.

CG18746 | raw ATP luminescence, replicate 1: 67080; raw ATP luminescence, replicate 2: 54107; Call: inactive
CG14110 | raw ATP luminescence, replicate 1: 80653; raw ATP luminescence, replicate 2: 79340; Call: inactive
CG30156 | raw ATP luminescence, replicate 1: 84513; raw ATP luminescence, replicate 2: 88007; Call: inactive
CR42546 | raw ATP luminescence, replicate 1: 62763; raw ATP luminescence, replicate 2: 57477; Call: inactive
CG6865 | raw ATP luminescence, replicate 1: 42587; raw ATP luminescence, replicate 2: 32603; Call: inactive
Fdx1 | raw ATP luminescence, replicate 1: 88553; raw ATP luminescence, replicate 2: 89643; Call: inactive
CG12895 | raw ATP luminescence, replicate 1: 59020; raw ATP luminescence, replicate 2: 75717; Call: inactive
Sk1 | raw ATP luminescence, replicate 1: 3.06e5; raw ATP luminescence, replicate 2: 2.74e5; Call: inactive
obe | raw ATP luminescence, replicate 1: 34397; raw ATP luminescence, replicate 2: 21570; Call: inactive
Mgat4b | raw ATP luminescence, replicate 1: 90620; raw ATP luminescence, replicate 2: 65740; Call: inactive
chas #1 | raw ATP luminescence, replicate 1: 3.37e5; raw ATP luminescence, replicate 2: 3.18e5; Call: inactive
chas #2 | raw ATP luminescence, replicate 1: 3.02e5; raw ATP luminescence, replicate 2: 2.60e5; Call: inactive
CG9760 | raw ATP luminescence, replicate 1: 69420; raw ATP luminescence, replicate 2: 72030; Call: inactive
CG14655 | raw ATP luminescence, replicate 1: 1.71e5; raw ATP luminescence, replicate 2: 2.17e5; Call: inactive
CG9312 | raw ATP luminescence, replicate 1: 35083; raw ATP luminescence, replicate 2: 29217; Call: inactive
imd | raw ATP luminescence, replicate 1: 56940; raw ATP luminescence, replicate 2: 66257; Call: inactive
Wdr59 | raw ATP luminescence, replicate 1: 85143; raw ATP luminescence, replicate 2: 74310; Call: inactive
Rrp5 | raw ATP luminescence, replicate 1: 38527; raw ATP luminescence, replicate 2: 40253; Call: inactive
Lgr3 #1 | raw ATP luminescence, replicate 1: 42210; raw ATP luminescence, replicate 2: 50710; Call: inactive
Lgr3 #2 | raw ATP luminescence, replicate 1: 47610; raw ATP luminescence, replicate 2: 60210; Call: inactive
CG18662 | raw ATP luminescence, replicate 1: 46793; raw ATP luminescence, replicate 2: 71200; Call: inactive
Muc30E | raw ATP luminescence, replicate 1: 2.89e5; raw ATP luminescence, replicate 2: 2.83e5; Call: inactive
CecB | raw ATP luminescence, replicate 1: 31550; raw ATP luminescence, replicate 2: 42540; Call: inactive
Act88F | raw ATP luminescence, replicate 1: 91030; raw ATP luminescence, replicate 2: 69760; Call: inactive
Dp1 | raw ATP luminescence, replicate 1: 64123; raw ATP luminescence, replicate 2: 72673; Call: inactive
CG15021 | raw ATP luminescence, replicate 1: 83147; raw ATP luminescence, replicate 2: 77107; Call: inactive
nan | raw ATP luminescence, replicate 1: 55357; raw ATP luminescence, replicate 2: 50010; Call: inactive
CG17786 | raw ATP luminescence, replicate 1: 63330; raw ATP luminescence, replicate 2: 69500; Call: inactive
